Measurements: patent US20250271421A1, “KIT FOR QUANTITATIVE ANALYSIS OF C-REACTIVE PROTEIN, METHOD FOR QUANTITATIVE ANALYSIS OF C-REACTIVE PROTEIN, AND APPARATUS FOR PERFORMING THE SAME” (I-sens, Inc., priority 2024, published 2025)
Some entries share one result that the patent states for a list of compounds.

Tested on: immunoreagent (R2) containing Anti-CRP antibodies (latex particles coated with Anti-CRP antibodies)
Assay: Accelerated stability by stabilizers (1), 50° C., 7 days, 1-Level CRP Serum Sample
Type: physicochemical
Conditions: 100 mM stabilizer, up to storage day 7, CRP 60 mg/L
Protocol: To select a stabilizer that ensures the storage stability of the immunoreagent (R2) containing Anti-CRP antibodies, five candidate stabilizers were chosen. Each candidate stabilizer was added to latex particles coated with Anti-CRP antibodies and dried. The reagent solution and 1-Level CRP Serum Sample (CRP 60 mg/L) were added to the dried composition to facilitate the immune reaction between CRP and Anti-CRP antibodies. After the immune reaction, the absorbance was measured to obtain the baseline measurement value for storage on day 0. […]
Furthermore, the dried compositions, containing each candidate stabilizer added to latex particles coated with Anti-CRP antibodies, were stored in an oven at 50° C. […] The immune reaction between CRP and Anti-CRP antibodies was carried out, and the absorbance after the immune reaction was measured to obtain the measurement values for storage days 1, 2, 3, 4, 5, 6, and 7.
As for the control group, the experiment was configured to measure the absorbance after the immune reaction between the 1-Level CRP Serum Sample (CRP 60 mg/L) without the addition of any stabilizer and latex particles coated with Anti-CRP antibodies.
Furthermore, deviations (Bias) were calculated based on the baseline measurement value and the measurement values obtained over the storage period. […]

SMILES	deviation (Bias) of measurement values compared to baseline on day 0
OC[C@H]1O[C@H](O[C@H]2O[C@H](CO)[C@@H](O)[C@H](O)[C@H]2O)[C@H](O)[C@@H](O)[C@@H]1O [Trehalose]	≤ 20%
OC[C@H]1O[C@@](CO)(O[C@H]2O[C@H](CO)[C@@H](O)[C@H](O)[C@H]2O)[C@@H](O)[C@@H]1O [Sucrose]	≤ 20%
